Experimental data: PubChem BioAssay AID504791 (Drosophila RNAi Screening Center, 2011)

Purpose: 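Factors in Argonaute-based small RNA production and activity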 (primary screen)
Cells: Drosophila S2-derived reporter cells
Knock-down reagent: long dsRNA against Drosophila genes, about 150-250 ng dsRNA per well (siRNA assay); about 80-120 ng (miRNA assay)
Time to read-out: about 5 days (siRNA assay); about 4 days (miRNA assay)
Challenge: copper sulfate induction of reporters: 25 µM (siRNA assay); 200 mM stated (miRNA assay), 1-2 days before reading
Detection: 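Per-well ratio of Renilla over firefly light, expressed relative to that plate's average ratio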
Rule for the call: 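First-pass picks had plate-scaled ratios over 1.5 for the siRNA assay, over 1.6 for the miRNA assay, or under 0.6; two distinct dsRNAs had to score alike on retest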
In all, the deposit lists about 23,000 reagents; below is an unselected part of those with a known target gene and a result. Of all reagents, 199 (0.86%) are marked active. 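Plate-scaled ratios behind the calls are not deposited; printed light signals are raw; many rows marked increased or decreased are still called inactive.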 Entries without a mark were called inactive. The record does not give: the direction of the score.

target gene | dsRNA | stable siRNA reporter change | miRNA reporter change | stable assay Renilla, run 1 (luminescence) | stable assay firefly, run 1 (luminescence)
CG31178 | DRSC14590 | – | – | 8375 | 4.18e5
Atg3 | DRSC10736 | – | – | 5227 | 4.76e5
Atg3 | DRSC21758 | – | – | 8088 | 4.03e5
CG14974 | DRSC08433 | – | – | 6818 | 3.68e5
Gr64c | DRSC08445 | – | – | 6451 | 3.69e5
drongo | DRSC00814 | – | – | 21010 | 1.95e5
TwdlB | DRSC16050 | – | – | 6290 | 5.74e5
Mlc-c | DRSC18683 | – | – | 7923 | 5.59e5
Coa7 | DRSC20967 | – | – | 7175 | 6.56e5
CG7029 | DRSC16177 | – | reporter ratio lowered past the hit cutoff | 7456 | 3.03e5
Ir60e | DRSC04227 | – | – | 5879 | 3.69e5
CG15484 | DRSC02494 | – | – | 4502 | 3.68e5
CG15484 | DRSC22836 | – | – | 5303 | 3.90e5
RNASEK | DRSC21641 | – | – | 9866 | 4.63e5
Mcm7 | DRSC11219 | – | – | 8284 | 6.17e5
CG34462 | DRSC10768 | – | – | 7643 | 4.88e5
CG4594 | DRSC02762 | – | – | 7947 | 8.83e5
mura | DRSC16483 | – | – | 5275 | 2.56e5
mura | DRSC16484 | reporter ratio raised past the hit cutoff | reporter ratio raised past the hit cutoff | 6359 | 1.76e5
mura | DRSC23145 | – | – | 4392 | 2.96e5
Syngr | DRSC06003 | – | – | 5908 | 3.17e5
CG34046 (retired record) | DRSC14075 | – | – | 6723 | 3.17e5
CG12985 | DRSC19505 | – | – | 4587 | 4.06e5
GstE4 | DRSC06674 | – | – | 6106 | 2.80e5
CG15255 | DRSC01869 | – | – | 8639 | 3.52e5
Rtel1 | DRSC18343 | – | – | 5862 | 3.27e5
BomS3 | DRSC21458 | – | – | 9573 | 6.34e5
daw | DRSC00479 | – | – | 11819 | 5.18e5
CG6650 | DRSC10685 | reporter ratio lowered past the hit cutoff | – | 9862 | 6.44e5
CG32582 (retired record) | DRSC19114 | – | – | 5179 | 3.78e5
Sgs5 | DRSC16862 | – | – | 7214 | 4.43e5
CG31612 | DRSC03697 | – | – | 4807 | 4.74e5
CG31612 | DRSC03698 | – | – | 7106 | 4.28e5
TpnC4 | DRSC04856 | – | – | 7619 | 5.31e5
Adgf-C | DRSC16473 | – | – | 7459 | 3.57e5
Cipc | DRSC14898 | – | – | 7134 | 5.52e5
Cipc | DRSC14900 | – | – | 7048 | 3.83e5
CG12877 | DRSC14565 | – | reporter ratio raised past the hit cutoff | 9475 | 4.44e5
CG7110 | DRSC03011 | – | – | 5522 | 1.19e6
CG7110 | DRSC03012 | – | – | 7834 | 4.01e5
Vha100-2 | DRSC14152 | – | – | 9523 | 3.98e5
lectin-30A | DRSC02560 | – | – | 8275 | 3.62e5
Rnf11 | DRSC21574 | – | – | 8263 | 3.89e5
CG12024 | DRSC08229 | – | reporter ratio raised past the hit cutoff | 9418 | 2.31e5
CG11906 | DRSC06096 | – | – | 6638 | 4.32e5
cathD | DRSC07588 | – | – | 6434 | 3.94e5
Diedel3 | DRSC19544 | – | – | 6899 | 3.64e5
tll | DRSC17085 | – | – | 6251 | 3.11e5
Cyp9f3 | DRSC16636 | – | – | 7704 | 5.42e5
kin17 | DRSC11890 | – | – | 8974 | 6.04e5
CG33489 | DRSC10588 | – | – | 6603 | 3.53e5

11 of these entries, reformatted.
| target gene | dsRNA | stable siRNA reporter change | miRNA reporter change | stable assay Renilla, run 1 (luminescence) | stable assay firefly, run 1 (luminescence) |
| --- | --- | --- | --- | --- | --- |
| CG7110 | DRSC03011 | – | – | 5522 | 1.19e6 |
| CG7110 | DRSC03012 | – | – | 7834 | 4.01e5 |
| Vha100-2 | DRSC14152 | – | – | 9523 | 3.98e5 |
| lectin-30A | DRSC02560 | – | – | 8275 | 3.62e5 |
| Rnf11 | DRSC21574 | – | – | 8263 | 3.89e5 |
| CG12024 | DRSC08229 | – | reporter ratio raised past the hit cutoff | 9418 | 2.31e5 |
| CG11906 | DRSC06096 | – | – | 6638 | 4.32e5 |
| cathD | DRSC07588 | – | – | 6434 | 3.94e5 |
| Diedel3 | DRSC19544 | – | – | 6899 | 3.64e5 |
| tll | DRSC17085 | – | – | 6251 | 3.11e5 |
| Cyp9f3 | DRSC16636 | – | – | 7704 | 5.42e5 |

Next results:
target gene | dsRNA | stable siRNA reporter change | miRNA reporter change | stable assay Renilla, run 1 (luminescence) | stable assay firefly, run 1 (luminescence)
CG15452 | DRSC20523 | – | – | 6211 | 4.44e5
O-fut1 | DRSC06138 | – | – | 8245 | 4.00e5
Serinc | DRSC11296 | – | – | 9026 | 3.24e5
CG42340 | DRSC17458 | – | – | 5552 | 3.55e5
CG42340 | DRSC17841 | – | – | 5316 | 3.05e5
CG42340 | DRSC18305 | – | – | 4675 | 2.56e5
CG42340 | DRSC21619 | – | – | 9333 | 4.68e5
Nemp | DRSC20206 | – | – | 7954 | 5.29e5
Caper | DRSC02137 | – | – | 21445 | 1.14e6
Gpo3 | DRSC01978 | – | – | 7171 | 4.44e5
CG30289 | DRSC03870 | – | – | 4807 | 2.91e5
CG13887 | DRSC08357 | – | – | 10385 | 4.75e5
lost | DRSC12002 | – | – | 5208 | 3.74e5
lost | DRSC12234 | – | – | 4403 | 3.06e5
lost | DRSC21987 | reporter ratio lowered past the hit cutoff | – | 9231 | 9.13e5
Tab2 | DRSC07481 | – | – | 6534 | 3.04e5
CG7299 | DRSC03043 | – | – | 7494 | 4.84e5
CG14442 | DRSC17935 | – | – | 7200 | 2.93e5
CG13223 | DRSC06344 | – | – | 7301 | 3.70e5
Fbp2 | DRSC03327 | – | – | 8644 | 6.59e5
CG33458 | DRSC22891 | – | – | 3943 | 3.79e5
Orc4 | DRSC04634 | – | – | 9463 | 2.03e6
scf | DRSC08735 | – | – | 6963 | 4.01e5
CG33221 (retired record) | DRSC21201 | – | – | 4718 | 3.70e5
CG2076 | DRSC19832 | – | – | 4784 | 3.74e5
CG17029 | DRSC10240 | – | – | 7119 | 3.12e5
DIP-zeta | DRSC02203 | – | – | 7286 | 4.09e5
DIP-zeta | DRSC02204 | – | – | 6326 | 5.70e5
DIP-zeta | DRSC02205 | – | – | 6874 | 3.10e5
MED16 | DRSC04506 | – | – | 4515 | 2.29e5
GluRIIC | DRSC00642 | – | – | 40390 | 1.80e5
CG34280 | DRSC13229 | – | – | 4967 | 4.55e5
